According to patent US20220401536A1:
Results are given in words; binding and its absence hold for the method and conditions named. In cells and extracts the contact can be indirect. Some results given as binding are weak or reduced against the parent protein; the word gives no strength. Blank lines part the entries; values can stand above or below the substance they belong to.

Protein sequences, listed by entry. Tags and fused reporters are not part of them. Lines headed by an entry give the natural chain unless they say otherwise; changes in a name come on top.
UniProt Q15116: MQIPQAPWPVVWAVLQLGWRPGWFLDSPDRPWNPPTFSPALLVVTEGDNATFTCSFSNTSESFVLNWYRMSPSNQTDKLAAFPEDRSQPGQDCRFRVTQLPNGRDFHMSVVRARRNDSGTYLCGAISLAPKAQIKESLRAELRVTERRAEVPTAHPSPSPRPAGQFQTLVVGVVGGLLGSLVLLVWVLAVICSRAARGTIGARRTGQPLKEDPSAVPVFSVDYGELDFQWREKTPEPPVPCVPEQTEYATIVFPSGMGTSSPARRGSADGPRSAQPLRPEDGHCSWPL
UniProt Q9H7M9: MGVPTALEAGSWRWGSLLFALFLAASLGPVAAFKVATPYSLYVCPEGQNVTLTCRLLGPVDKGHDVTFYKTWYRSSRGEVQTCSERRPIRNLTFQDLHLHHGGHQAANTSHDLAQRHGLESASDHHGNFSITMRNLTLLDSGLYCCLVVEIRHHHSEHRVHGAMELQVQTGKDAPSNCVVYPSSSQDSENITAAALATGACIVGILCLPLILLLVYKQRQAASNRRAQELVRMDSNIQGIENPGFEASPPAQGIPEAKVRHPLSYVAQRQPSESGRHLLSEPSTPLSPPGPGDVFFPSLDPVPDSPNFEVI

Key:
[1] = biological target: PD-1-HA (HA-tagged PD-1 expressed in 293T cells) (human) (UniProt Q15116); experiment: Ig pull-down from lysates of transfected 293T cells, immunoblot (FIG. 2B)
[2] = biological target: PD-1-HA (HA-tagged PD-1 expressed in 293T cells) (human) (UniProt Q15116); experiment: Ig pull-down from lysates of transfected 293T cells, immunoblot
[3] = biological target: Recombinant human PD-1-Ig (extracellular region of PD-1 fused with the immunoglobulin G Fc segment) (human) (UniProt Q15116); experiment: Ig pull-down with purified proteins, anti-His blot
[4] = biological target: Recombinant human PD-1-Ig (extracellular region of PD-1 fused with the immunoglobulin G Fc segment) (human) (UniProt Q15116); experiment: Ig pull-down with purified proteins (FIG. 2D)
[5] = biological target: PD-1-HA (HA-tagged PD-1 expressed in 293T cells) (human) (UniProt Q15116); experiment: co-immunoprecipitation from 293T lysates (FIG. 2C)
[6] = biological target: PD-1-HA (HA-tagged PD-1 expressed in 293T cells) (human) (UniProt Q15116); experiment: reciprocal co-immunoprecipitation from 293T lysates

binding [1]: binds
binding [2]: binds
Substance: DD1α-Ig (extracellular region of DD1α fused with the immunoglobulin G Fc segment) (from UniProt Q9H7M9 33-194) (Fc fusion)

binding [3]: binds
binding [4]: binds
Substance: 6×His-DD1α 33-194 (from UniProt Q9H7M9 33-194) (receptor)

binding [5]: binds
binding [6]: binds
Substance: DD1α-Myc (Myc-tagged DD1α expressed in 293T cells) (from UniProt Q9H7M9 33-311) (receptor)
